# Test results reported in patent publication US10350164B2, “Process for preparing a dry powder formulation comprising an anticholinergic, a corticosteroid and a beta-adrenergic” (CHIESI FARMACEUTICI S.p.A., priority 2017, dated 2019).
# What was measured:
# [1] = Particle size distribution (PSD) by Malvern analysis, initially and after open-tray exposure; format: physicochemical; conditions: upon exposure to 30° C./65% RH for 3 days and 25° C./90% RH for 4 hours
# Description: The size of the particles active is determined by measuring the characteristic equivalent sphere diameter, known as volume diameter, by laser diffraction. In the reported examples, the volume diameter has been determined using a Malvern apparatus. However, other equivalent apparatus may be used.
# Co-micronized microparticles and reference micronized glycopyrronium bromide were exposed to the following conditions:
# Thin layer (˜0.5 cm) in open tray for 3 days at 30° C./65% relative humidity (RH);
# Thin layer (˜0.5 cm) in open tray for 4 hours at 25° C./90% RH
# (i) particle size distribution (PSD) in terms of d(v0.1), d(v0.5) and d(v0.9) by Malvern analysis, […]
# [2] = Uniformity of distribution of the active ingredients in the blend by HPLC; format: physicochemical
# Description: It is usually determined according to known methods, for instance by taking samples from different parts of the powder and testing the component by HPLC or other equivalent analytical methods.
# The uniformity of distribution of the active ingredients was evaluated by withdrawing 12 samples from different parts of the blend and evaluated by HPLC.
smiles,measurement,setting,value
"C[N+]1(C)CCC(OC(=O)C(O)(c2ccccc2)C2CCCC2)C1 (racemic) [GB, glycopyrronium bromide]",Variation in particle size distribution upon exposure,[1],significant increase of the particle size
same,Uniformity of distribution,"[2]; Example 3 formulation (FF 6 μg/BDP 100 μg/GB 12.5 μg per 10 mg carrier), 12 samples, mean value±RSD",100.8 (±1.6)
same,Uniformity of distribution,[2]; Example 4 formulation (FF 6 μg/BDP 100 μg/GB 25 μg per 10 mg carrier),101.5 (±2.5)
